These are yes or no findings as the source states them, for the method shown. In cells and extracts the contact can be indirect. These calls come from enrichment with a bait or labelling near it, and not all partners need be listed.
B1: ATP5F1 (protein, UniProt P24539 43-256)
chain: PVPPLPEYGGKVRYGLIPEEFFQFLYPKTGVTGPYVLGTGLILYALSKEIYVISAETFTALSVLGVMVYGIKKYGPFVADFADKLNEQKLAQLEEAKQASIQHIQNAIDTEKSQQALVQKRHYLFDVQRNNIAMALEVTYRERLYRVYKEVKNRLDYHISVQNMMRRKEQEHMINWVEKHVVQSISTQQEKETIAKCIADLKLLAKKAQAQPVM
B2: ATP5O/OSCP (protein, UniProt P48047 24-213)
chain: FAKLVRPPVQVYGIEGRYATALYSAASKQNKLEQVEKELLRVAQILKEPKVAASVLNPYVKRSIKVKSLNDITAKERFSPLTTNLINLLAENGRLSNTQGVVSAFSTMMSVHRGEVPCTVTSASPLEEATLSELKTVLKSFLSQGQVLKLEAKTDPSILGGMIVRIGEKYVDMSVKTKIQKLGRAMREIV
B3: SLC16A1 (protein, UniProt P53985 1-500)
chain: MPPAVGGPVGYTPPDGGWGWAVVIGAFISIGFSYAFPKSITVFFKEIEGIFHATTSEVSWISSIMLAVMYGGGPISSILVNKYGSRIVMIVGGCLSGCGLIAASFCNTVQQLYVCIGVIGGLGLAFNLNPALTMIGKYFYKRRPLANGLAMAGSPVFLCTLAPLNQVFFGIFGWRGSFLILGGLLLNCCVAGALMRPIGPKPTKAGKDKSKASLEKAGKSGVKKDLHDANTDLIGRHPKQEKRSVFQTINQFLDLTLFTHRGFLLYLSGNVIMFFGLFAPLVFLSSYGKSQHYSSEKSAFLLSILAFVDMVARPSMGLVANTKPIRPRIQYFFAASVVANGVCHMLAPLSTTYVGFCVYAGFFGFAFGWLSSVLFETLMDLVGPQRFSSAVGLVTIVECCPVLLGPPLLGRLNDMYGDYKYTYWACGVVLIISGIYLFIGMGINYRLLAKEQKANEQKKESKEEETSIDVAGKPNEVTKAAESPDQKDTDGGPKEEESPV
B4: HSDL2 (protein, UniProt Q6YN16 1-418)
chain: MLPNTGRLAGCTVFITGASRGIGKAIALKAAKDGANIVIAAKTAQPHPKLLGTIYTAAEEIEAVGGKALPCIVDVRDEQQISAAVEKAIKKFGGIDILVNNASAISLTNTLDTPTKRLDLMMNVNTRGTYLASKACIPYLKKSKVAHILNISPPLNLNPVWFKQHCAYTIAKYGMSMYVLGMAEEFKGEIAVNALWPKTAIHTAAMDMLGGPGIESQCRKVDIIADAAYSIFQKPKSFTGNFVIDENILKEEGIENFDVYAIKPGHPLQPDFFLDEYPEAVSKKVESTGAVPEFKEEKLQLQPKPRSGAVEETFRIVKDSLSDDVVKATQAIYLFELSGEDGGTWFLDLKSKGGNVGYGEPSDQADVVMSMTTDDFVKMFSGKLKPTMAFMSGKLKIKGNMALAIKLEKLMNQMNARL
B5: SDHB subunit of complex II (succinate dehydrogenase) (protein, UniProt P21912 29-280)
chain: AQTAAATAPRIKKFAIYRWDPDKAGDKPHMQTYEVDLNKCGPMVLDALIKIKNEVDSTLTFRRSCREGICGSCAMNINGGNTLACTRRIDTNLNKVSKIYPLPHMYVIKDLVPDLSNFYAQYKSIEPYLKKKDESQEGKQQYLQSIEEREKLDGLYECILCACCSTSCPSYWWNGDKYLGPAVLMQAYRWMIDSRDDFTEERLAKLQDPFSLYRCHTIMNCTRTCPKGLNPGKAIAEIKKMMATYKEKKASV

Each binder was assayed against SIRT3-FLAG (assay: affinity purification with mass spectrometry; FLAG-IPs from HEK293T cells expressing empty vector or SIRT3-FLAG, eluted with FLAG peptides, LC-MS/MS; two independent experiments).

binding	Binder
binds	B1
binds	B2
binds	B3
binds	B4
binds	B5
